107 compounds from PubChem BioAssay AID1347421 (Sanford-Burnham Center for Chemical Genomics, 2020) can be followed below.

By UniProt entry, the sequences of proteins in these tests, tags left out. Where a name states a change or a piece, a line headed by the entry shows the natural chain unless it says otherwise.
UniProt O00391: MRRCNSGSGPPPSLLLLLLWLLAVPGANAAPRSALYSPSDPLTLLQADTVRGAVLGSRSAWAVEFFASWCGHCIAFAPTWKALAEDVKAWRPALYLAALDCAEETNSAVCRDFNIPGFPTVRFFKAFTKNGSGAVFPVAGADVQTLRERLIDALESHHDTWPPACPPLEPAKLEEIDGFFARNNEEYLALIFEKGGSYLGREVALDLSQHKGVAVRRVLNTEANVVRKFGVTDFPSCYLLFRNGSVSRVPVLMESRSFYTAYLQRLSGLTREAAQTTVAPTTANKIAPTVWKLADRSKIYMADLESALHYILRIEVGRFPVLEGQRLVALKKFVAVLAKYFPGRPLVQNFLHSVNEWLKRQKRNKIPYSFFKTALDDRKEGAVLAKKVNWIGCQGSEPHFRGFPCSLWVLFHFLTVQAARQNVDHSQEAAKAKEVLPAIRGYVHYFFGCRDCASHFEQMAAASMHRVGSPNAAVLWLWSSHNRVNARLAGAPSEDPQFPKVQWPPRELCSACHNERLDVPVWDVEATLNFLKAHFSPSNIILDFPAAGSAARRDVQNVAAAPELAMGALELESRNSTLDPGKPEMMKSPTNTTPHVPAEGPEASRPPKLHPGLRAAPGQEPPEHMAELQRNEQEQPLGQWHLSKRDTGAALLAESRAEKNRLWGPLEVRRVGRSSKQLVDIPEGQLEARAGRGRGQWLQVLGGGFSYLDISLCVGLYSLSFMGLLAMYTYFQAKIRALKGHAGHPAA

Over roughly 1,500 compounds, “activity” has its median near 2; the lowest 2% begin near -18. The list shows a part of the results. The source made the active and inactive calls.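 Rule for the calls: active = inhibition of at least 40% at 10 µM; inconclusive = no clear call, values can overlap the other calls; inactive = the rest.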

The target of the assay is Sulfhydryl oxidase 1 (Homo sapiens) (UniProt O00391). Description: QSOX1 enzyme inhibitors, confirmation, biochemical, ROS-Glo luminescence, single concentration (AID 1347421).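 Note: 0% = DMSO wells with enzyme and 100% = wells lacking QSOX1 enzyme.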 Particulars: recombinant hQSOX1, RNase A substrate, ROS-Glo H2O2 luminescence; at 10 µM.
Turning to `COc1ccc(N2CCN(C(=O)c3ccc(-n4cnnc4)cc3Cl)CC2)cc1`, the activity was inactive: -13.7%. On to `CN(C)c1ccccc1C(=O)N1CCOC(Cc2cccc(F)c2)C1` (configuration not stated), for which the activity was determined as 10%. In the case of `CCCN1CCC(NC(=O)Nc2ccccc2Cl)CC1`, the activity is inactive: -0.6%. The figure for `CCC(COC)NC(=O)CCc1nnc(CCCCc2ccccc2)o1` (configuration not stated) is 9.7%; for `C=C(C)CNCc1ccc(OCC(O)CN(C)C(C)C)c(OC)c1` (configuration not stated) it is inactive: -0.7%; for `Cc1nc(-c2ccncc2)ncc1C(C)NC/C=C/c1ccco1` (configuration not stated) it is 6.2%. For the compound `CCOC(=O)C1CCCN(Cc2c(C(=O)N3CCCCCCC3)nc3sccn23)C1` (configuration not stated), the activity came out at 4.4%. Turning to `CSc1cccc(CN2CCC3(CCCN(CC4CC4)C3=O)C2)c1` (configuration not stated), the activity stood at 3.3%. To `Cc1ccc(S(=O)(=O)N2CCC(C(=O)N3CCN(c4ccccn4)CC3)CC2)cc1` belongs inactive: -18.7%; to `COC(=O)[C@H](CC(C)C)NC(=O)CCc1nnc(COc2ccccc2)o1`, 5%; to `CN(CCO)Cc1cccc(OCC(O)CN2CCOCC2)c1` (configuration not stated), inactive: -3.7%. The figure for `O[C@@H]1CCN(Cc2nc(-c3ccc(C(F)(F)F)cc3)no2)C1` is inactive: -4.2%.

`O=C1N(Cc2ccc(F)cc2)CCCC1(O)CNC1CCCC1` (configuration not stated): the activity was active: 42.6%.

As for `C=C(C)CN(CC)Cc1ccc(OCC(O)CN2CCN(CC)CC2)c(OC)c1` (configuration not stated), the activity came out at 0.2%. In the case of `COc1ccccc1Oc1ncccc1CNCC1CCOC1` (configuration not stated), the activity is 2.6%. As to `COCCn1c(CN(C)C2CCOCC2)cnc1S(=O)(=O)CC(C)(C)C`, the activity turned out to be 4.3%.

As for `CCN(CC)CC(O)COc1cc(CNCCCn2ccnc2)ccc1OC` (configuration not stated), the activity came to 9.4%. `O=C(C1CCN(Cc2nc(-c3ccc(Cl)cc3)no2)CC1)N1CCCCC1`: the activity is inactive: -3%. On to `COc1ccc(NC(C)=O)cc1NCC1(c2cccc(F)c2)CCOC1` (configuration not stated), for which the activity was inactive: -0.7%. As to `Cc1nonc1CC(=O)N1CCC(CCC(=O)N2CCN(c3ccccc3)CC2)CC1`, the activity was determined as 11.2%.

On to `NC(=O)COc1ccc(S(=O)(=O)N2CCOCC2)cc1`, for which the activity is inactive: -13.3%. On to `CC1=C(C(=O)N2CCCC(C(=O)c3cccc(C(F)(F)F)c3)C2)OCCO1` (configuration not stated), for which the activity is 3.1%. The figure for `COc1cc(CNc2nncc(-c3ccc(OC)cc3OC)n2)cc(OC)c1` is 9.6%; for `CCn1ccnc1CN1CCC(CCC(=O)Nc2ccccc2)CC1` it is 3.9%.

As for `Cc1oc(-c2cccs2)nc1CN(C)C(C)c1cccs1` (configuration not stated), the activity is 2.7%. As for `CCN(CC)S(=O)(=O)c1csc(C(N)=O)c1`, the activity was determined as 4.7%. The figure for `C1CCC(C2CCN(Cc3nc(C4CC4)no3)C2)CC1` (configuration not stated) is 6.4%; for `CCS(=O)(=O)c1ncc(CN(C)CCc2cn[nH]c2)n1CCCc1ccccc1` it is 0.5%; for `NCCCN(Cc1ccco1)C1CCCC1` it is 4.8%. To `CC(=O)N1CCC(C(=O)Nc2ccc(Cl)cc2C(F)(F)F)CC1` belongs inactive: -11.6%; to `Cc1nn(C)cc1CN(C)Cc1ccc(OCC(O)CN2CCCCC2)cc1` (configuration not stated), 0.9%.

Consider `Cc1cccc(CN2CCN(Cc3nc(-c4ccc(C)s4)oc3C)CC2=O)c1`, for which the activity was determined as 8.2%. The figure for `CCC(C(=O)Nc1ccccc1C(=O)N1CCCC1)N(c1ccccc1)S(C)(=O)=O` (configuration not stated) is 2.4%. To `Cc1cccc(CN2CCCC(O)(CNCc3nc(C)cs3)C2=O)c1` (configuration not stated) belongs 4.6%.

Take `CC(C)CN1CCC(C2CCN(C(=O)c3ccc(CN(C)C)o3)C2)CC1` (configuration not stated): the activity was determined as 0.8%. On to `COc1ccc(S(=O)(=O)N2CC(=O)Nc3ccccc32)cc1C`, for which the activity was inactive: -6%.

Take `COc1ccc(F)cc1C(=O)C1CCCN(C(=O)/C=C/c2cnn(C)c2)C1` (configuration not stated): the activity came to 0.1%.

As to `COc1ccc(CCN2CC(NC(=O)c3ccnn3C)CC2=O)cc1` (configuration not stated), the activity is 4.3%. To `CCOc1cccc(CN2CCCC(N3CCCC3)C2)c1O` (configuration not stated) belongs 1.7%; to `O=C(c1ccc(-c2ccccc2)cc1)C1CCCN(C(=O)CN2C(=O)CSC2=O)C1` (configuration not stated), 5.7%. Consider `CCNC(=O)N1CCCC(C(=O)c2ccc3cc(OC)ccc3c2)C1` (configuration not stated), for which the activity was 4.5%. The figure for `CNCc1nc(C2=[C+]C=C(C)C=C2)no1` is inactive: -7.9%; for `c1ccc(Cc2nc(-c3ccncc3)n[nH]2)cc1` it is 1.3%; for `O=c1cnnc(N2CCCCC2)[nH]1` it is 3.8%. In the case of `COCCS(=O)(=O)c1ncc(CN(C)CCc2cn[nH]c2)n1Cc1ccccc1`, the activity came out at 3.7%. To `Cn1cnnc1SCCNC(=O)C1CCC(=O)N(CCCc2ccccc2)C1` (configuration not stated) belongs 3.1%; to `COc1ccc(CN2CCCC(CCC(=O)N(C)C3CCN(C)CC3)C2)c2ccccc12` (configuration not stated), inactive: -0.9%. Consider `O=C(Nc1ccc(Oc2ccccc2)nc1)C1CCCCN1C1CCOCC1` (configuration not stated), for which the activity was inactive: -8.9%. On to `COCCNC(=O)CCC1CCN(Cc2cccnc2)CC1`, for which the activity was 4.8%. Consider `CC(C)n1cc(CN2CCc3onc(-c4ccccc4F)c3C2)cn1`, for which the activity was 3.4%. The figure for `C=CCn1c(SCC(=O)NC(C)(C)C)nc2c1c(=O)n(C)c(=O)n2C` is inactive: -14%; for `O=C(NCC1CCCO1)C1CCN(C2CCN(C(=O)c3cccc(F)c3)CC2)CC1` (configuration not stated) it is 8.1%. To `CCn1c(CN2CCCC2)nc2ccccc21` belongs inactive: -5.8%; to `COc1cc(C(=O)NCc2ccccc2C)cc(OC)c1OC`, 6.2%; to `CCn1ncc(CN2CCN(CC3CCCCC3)C(CCO)C2)c1C` (configuration not stated), 0.7%. To `Cc1ccc(CNCC2(O)CCCN(CC(C)(C)C)C2=O)o1` (configuration not stated) belongs inactive: -1.8%.

On to `CCN1CCCC1CN(CC1CCN(CCOC)CC1)C(=O)CCc1c(C)noc1C` (configuration not stated), for which the activity was 2.5%. To `Cn1cc(CN2CCCC2c2ccc(C(=O)NCc3ccccn3)s2)cn1` (configuration not stated) belongs inactive: -1.7%; to `O=C(NCC(c1ccccn1)N1CCOCC1)c1cn(Cc2ccc(Cl)cc2)nn1` (configuration not stated), 7.8%; to `COc1ccc(N2CCN(C(=O)c3cccc(-n4cnnc4)c3)CC2)cc1`, inactive: -22.3%.

With `CCOc1ccc(Cl)cc1S(=O)(=O)NC(C)C`, the activity came out at 3.5%. Turning to `FC(F)(F)c1ccccc1CN1CCCC(N2CCCC2)C1` (configuration not stated), the activity worked out at 3.9%.

Take `O=C(c1ccc2nc(Cc3cccc(Cl)c3)oc2c1)N1CC[C@H](O)C1`: the activity is inactive: -6.2%. Take `O=C(NCCCOc1cccnc1)C1CCC(=O)N(CCCN2CCOCC2)C1` (configuration not stated): the activity was determined as 4.2%. The figure for `O=C(Cn1cncn1)N1CCC(C2CCN(Cc3ccc(Cl)cc3)C2)CC1` (configuration not stated) is 0.5%; for `COc1ccccc1CCC(=O)N1CCOC(Cc2cccc(F)c2)C1` (configuration not stated) it is 3%. Regarding `COc1ccccc1CCN1CCC(CN(C)C(=O)C2CCOC2)CC1` (configuration not stated), the activity stood at 1.8%.

In the case of `CN1CCC(N2CCCC(NC(=O)c3ccc(F)cc3Cl)C2)CC1` (configuration not stated), the activity is 4.3%. The figure for `O=C(c1ccc(=O)[nH]c1)N1CCOC(CC2CCCCC2)C1` (configuration not stated) is 5.5%; for `O=C(CC1C(=O)NCCN1Cc1cccnc1)NCCCn1ccc2ccccc21` (configuration not stated) it is 3.3%. To `O=C1CCCN1CCC(=O)N1CCCC(CCc2ccccc2)C1` (configuration not stated) belongs 7.5%; to `O=C(Nc1n[nH]c(C2CCCCC2)n1)N1CCOC2(CCCC2)C1`, 1%; to `CN(C)CCNC(=O)c1ccc(OC2CCN(C3CCSC3)CC2)c(Cl)c1` (configuration not stated), 2.6%. Turning to `CCc1noc(C)c1C(=O)NC1CC(=O)N(CC2CCCCC2)C1` (configuration not stated), the activity is 5.4%. The figure for `O=C(NC1CC(=O)N(Cc2ccc(F)cc2)C1)c1ccc[n+]([O-])c1` (configuration not stated) is 10.4%. As for `Cc1noc(-c2ccc(N3C[C@H]4CC[C@H]3C4)nc2)n1`, the activity was inactive: -3.6%. On to `CN(C)Cc1ccc(C(=O)N2CCCC(CCc3ccc(F)c(F)c3)C2)o1` (configuration not stated), for which the activity is 5.2%. As to `COCCNc1nnnc2c1sc1nc(N3CCOCC3)c3c(c12)CCCC3`, the activity is inactive: -11.5%. For `CCS(=O)(=O)N1CCN(CC2(c3cccc(F)c3)CCOC2)CC1` (configuration not stated), the activity is inactive: -2.4%.

Regarding `Cn1ccnc1CN1CCN(C(=O)c2cn(Cc3ccccc3C(F)(F)F)nn2)CC1`, the activity amounted to 3.1%. Consider `CN(CCc1ccccn1)C(=O)CCC1CCCN(C(=O)Cn2nc3ccccc3n2)C1` (configuration not stated), for which the activity was determined as 7.7%. For `COc1ccc(OCC(O)CN2CCC(O)CC2)c(CNCC(C)(C)CO)c1` (configuration not stated), the activity came to 7.4%. To `COC(=O)C1CCN(CC(O)COc2cccc(CN3CCOCC3)c2)CC1` (configuration not stated) belongs inactive: -2.5%. The figure for `O=C(c1cn(CCC2CCCCC2)nn1)N1CCCN(c2ncccn2)CC1` is 2.6%; for `COc1cc(CNCCN2CCOC2=O)ccc1OCC(O)CN1CCSCC1` (configuration not stated) it is 5.7%.

Turning to `CN(Cc1cnccn1)C(=O)CC1C(=O)NCCN1Cc1cccc(Oc2ccccc2)c1` (configuration not stated), the activity was inactive: -2.7%. On to `C=CCC(O)(CC=C)CNC(=O)C1CCC(=O)N(CCc2ccccn2)C1` (configuration not stated), for which the activity is inactive: -7.2%.

As for `COc1ccc(CN2CCNC(=O)C2CC(=O)NCc2ccc(C)o2)cc1C` (configuration not stated), the activity was inactive: -6.4%.

`CN1CCN(C(=O)Nc2ccc(Cl)cc2Cl)CC1`: the activity is inactive: -5.2%. For `CCCCOc1ccc(OCC(=O)NC)cc1`, the activity was determined as 7.7%. `O=C1N(Cc2ccccc2F)CCCC1(O)CN1CCC2(CC1)OCCO2` (configuration not stated): the activity is 7.3%. For `Cc1nc(CCNC(=O)C2CCC(=O)N(CCc3cccc(F)c3)C2)sc1C` (configuration not stated), the activity turned out to be 7.2%. With `COC(=O)c1ccc(Cl)c(NC(=O)CN2CCN(C)CC2)c1`, the activity was 3.8%. The figure for `O=C(CCc1cnccn1)NCc1cccnc1N1CCc2ccccc2C1` is inactive: -2.3%; for `CC(=O)N1CCN(Cc2nc(-c3cccc(Oc4ccccc4)c3)oc2C)CC1` it is inactive: -5.5%. To `COC(=O)CCC(=O)N1CCC(CCC(=O)Nc2cccc(C)c2)CC1` belongs 0.2%; to `Cc1ccc(S(=O)(=O)Cc2ccc(C(=O)N3CCCCC3C)cc2)cc1` (configuration not stated), inactive: -15.4%; to `CN(Cc1ccccc1)C(=O)c1nc2ccccn2c1CNCCCN1CCOCC1`, 8.1%. Consider `Cc1cnc(C)c(N2C[C@H]3OC(=O)N(CCc4ccc(F)cc4)[C@H]3C2)n1`, for which the activity was determined as 7.8%. Turning to `COc1ccc(C(=O)N2CCOC(CC3CCCCC3)C2)c(OC)n1` (configuration not stated), the activity is 7.6%. To `OCCC1CN(Cc2cccc3ccccc23)CCN1C1CCCC1` (configuration not stated) belongs inactive: -0.7%. For the compound `COc1cccc(C(=O)Nc2nc(C)c(C)s2)c1OC`, the activity is 36.7%. Consider `COc1cc(C)ccc1OCc1nc(C(=O)NCc2ccc(C)o2)co1`, for which the activity was inactive: -1.6%. To `COCCN1CCC(CN(Cc2ccncc2)Cc2ccccc2OCCO)CC1` belongs inactive: -2.4%.

With `C=C(C)CN(CC)C(=O)c1cc(COc2ccc(-n3cncn3)cc2)on1`, the activity amounted to 9.4%. `CC(=O)Oc1ccc(/C=C/c2ccc3ccccc3n2)cc1Cl`: the activity is active: 55.2%. Regarding `CC(C)(C)c1ccc(-c2cn[nH]c2N)cc1`, the activity is inactive: -2.1%.
